# Data reported in PubChem BioAssay AID624297 (National Center for Advancing Translational Sciences (NCATS), 2012).
# The whole screen tested about 340,000 compounds, of which about 6,200 (1.8%) were called active. Inconclusive results, whose numbers are uncertain, are shown with a selection of clear calls. The call rests on the fitted dose curve; in most records, active means well fitted activation curve with a large enough effect; inconclusive means small, poorly fitted or top-dose-only effect; inactive means no such curve, though single readings can be large or run the other way. A potency beside an inconclusive call is a rough fit, not a confirmed value.
# Test: A quantitative high throughput screen for small molecules that induce DNA re-replication in SW480 colon adenocarcinoma cells. Further: nearly all actives have a fitted effect of over 55% in size. On re-replication activation: % of control where 0% means no effect.
# Conditions: Hoechst DNA content imaging, 48 h; re-replication activation: at 46.1 µM (top of the series) unless noted
# Procedure, shortened: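 Readout is total intensity of Hoechst-stained nuclei, excited at 405 nm and collected at 500-530 nm. Compound treatment lasted 48 hr at 37 C in 5% CO2 before staining.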
# Potency means the concentration at half of the fitted maximal effect.
Structure (SMILES),Potency,re-replication activation
Cc1ccc(S(=O)(=O)c2nc(-c3cccs3)oc2NCc2cccnc2)cc1,"inconclusive: 29.1 µM [activator, single point]",–
CCOc1ccc(CCNC(=O)c2cccc(S(=O)(=O)N3CC(C)OC(C)C3)c2)cc1OCC (configuration not stated),"inconclusive: 29.1 µM [activator, single point]",–
CC12CCC(C(=O)Nc3cccc(Cl)c3)(C(Br)C1=O)C2(C)C (configuration not stated),"inconclusive: 29.1 µM [activator, single point]",–
Cc1ccc(C)c(-n2cc(CN3CCN(C(=O)c4ncn[nH]4)CC3)c(-c3ccccc3)n2)c1,"inconclusive: 16.4 µM [activator, partial curve, poor fit]",–
CC(C)(C)C1CCC(=NNc2ncc(C(F)(F)F)cc2Cl)CC1 (configuration not stated),"inconclusive: 25.9 µM [activator, single point]",–
COc1ccc(N(C(=O)/C=C/C(=O)Nc2cc(C)on2)C(C(=O)NC2CCCC2)c2ccccc2C)cc1 (configuration not stated),"inconclusive: 29.1 µM [activator, single point]",–
CC(C)OP(=O)(OC(C)C)C1(NS(=O)(=O)c2ccc(Cl)cc2)C=C(Cl)C(=O)C(Cl)=C1,–,inactive: -1.07%
COc1ccc(Cl)c2sc(N(CCN(C)C)C(=O)c3ccc4c(c3)OCCO4)nc12,"inconclusive: 25.9 µM [activator, single point]",–
CCOC(=O)N1CCN(c2c(NCc3ccccc3OC)c(=O)c2=O)CC1,"inconclusive: 23.1 µM [activator, single point]",–
O=C(Cn1ccsc1=NC(=O)c1ccco1)c1ccccc1,"inconclusive: 13 µM [activator, single point]",–
COc1c(C(=O)Nc2ccc(CN3CCOCC3)cc2)cc2ccccc2c1Br,"inconclusive: 1.64 µM [activator, full curve, poor fit]",–
Cc1ccc(-n2cc(CN(C)Cc3nccn3C)c(-c3cccc(C)c3)n2)cc1,"inconclusive: 29.1 µM [activator, single point]",–
COc1cc(-c2cc(C(=O)Nc3ccc(N4CCOCC4)cc3)c3ccccc3n2)cc(OC)c1OC,–,inactive: -33.2%
CCOC(=O)c1c(NC(=O)c2cc3n(n2)C(C(F)(F)F)CC(c2ccccc2)N3)sc(C)c1C (configuration not stated),active: 16.4 µM,–
Fc1ccc2c(c1)C1OCCCC1C(c1ccccc1)N2 (configuration not stated),"inconclusive: 29.1 µM [activator, single point]",–
CC(C)SCc1cc(N2CCCC2)nc(-c2ccccc2)n1,–,inactive: -6.98%
CCOC(=O)C1CCN(C(=O)Nc2cccc(Cl)c2)CC1,–,inactive: 0.161%
COC(=O)C1=CN(Cc2cccs2)C=C(C(=O)OC)C1c1cccc(O)c1,"inconclusive: 29.1 µM [activator, single point]",–
O=C(/C=C/c1cc(Br)ccc1O)c1ccco1,"inconclusive: 20.6 µM [activator, single point]",–
Cc1ccc(-c2ccc(S(=O)(=O)N3CC(C)OC(C)C3)cc2)cc1 (configuration not stated),–,inactive: 4.56%
O=C(CCc1ccc(S(=O)(=O)NCCc2ccccc2)cc1)Nc1ccc2c(c1)OCCO2,"inconclusive: 0.0058 µM [activator, full curve, poor fit]",–
CCCc1[nH]nc2c1C(c1ccc(Br)s1)C(C#N)=C(N)O2 (configuration not stated),"inconclusive: 23.1 µM [activator, single point]",–
CCC(C(=O)C(C)C(O)C(C)CCc1ccc(C)c(O)c1C(=O)O)C1OC(CC)(C2CC[C@@](O)(CC)C(C)O2)CC1C (some centres not stated),"inconclusive: 26.6 µM [activator, single point]",–

Structure (SMILES),Potency,re-replication activation
Cc1ccc(OCc2nc(-c3ccccn3)n[nH]2)cc1,–,inactive: 9.82%
Cc1ccccc1NC(=O)c1cc2c(=O)n3cccc(C)c3nc2s1,"inconclusive: 20.6 µM [activator, single point]",–
Cc1ccc(NC(=S)N(CCN(C)C)Cc2cc3cc(C)cc(C)c3[nH]c2=O)cc1,"inconclusive: 0.116 µM [activator, full curve, poor fit]",–
Cc1cc(-c2ccc(C)c(S(=O)(=O)NCCCN(Cc3ccccc3)C(C)C)c2)on1,active: 18.4 µM,–
CC(C)C[C@H]1CNC(=S)N1CC1CCCN1C[C@H](CC(C)C)N1C[C@H](Cc2ccc(O)cc2)N(CC2CCCCCC2)C1=S (some centres not stated),"inconclusive: 29.1 µM [activator, single point]",–
Cc1cc(-c2ccccc2)nc2c(Br)c(=O)[nH]n12,–,inactive: -5.34%
COC(=O)c1cc(NC(=O)c2ccco2)ccc1N1CCOCC1,"inconclusive: 18.4 µM [activator, single point]",–
O=C(COc1cccc2ccccc12)Nc1cc(Cl)ccc1C(=O)O,–,inactive: 0.679%
COc1cccc(C(=O)/C=C/Nc2ccc(S(=O)(=O)Nc3ccc(C(C)=O)cc3)cc2)c1,"inconclusive: 16.4 µM [activator, partial curve, poor fit]",–
CCOC(=O)C1=C(C)NC(C)=C(C(=O)OCC)C1c1ccc(Br)o1,–,inactive: 15.2%
O=S(=O)(CCN1CCSCC1)c1ccc(Cl)cc1,"inconclusive: 0.58 µM [activator, full curve, poor fit]",–
COc1cc(/C=C/C(=O)c2ccc(C)cc2)ccc1OCC#N,active: 16.4 µM,–
CC(=O)Nc1cccc(-c2csc(NCc3ccccc3)n2)c1,"inconclusive: 20.6 µM [activator, single point]",–
CCC[C@@H]1C[C@@]1(CCC)[C@@H](NP(=O)(c1ccccc1)c1ccccc1)c1ccc(C(=O)OC)cc1,"inconclusive: 11.6 µM [activator, partial curve]",–
CCCCOc1ccc(C(=O)NCC(=O)NCC(=O)OCC)cc1,–,inactive: 29.4%
CC(C)c1ccc(-c2noc(C3CCCN(C(=O)c4ccc(F)cc4F)C3)n2)cc1 (configuration not stated),"inconclusive: 23.1 µM [activator, partial curve, poor fit]",–
COc1ccc(C(=O)C[n+]2cc(-c3ccc(OC)cc3)n3c2CCCC3)cc1,"inconclusive: 16.4 µM [activator, single point]",–
Cc1cc(NS(=O)(=O)c2ccc(NC(=O)c3ccc([N+](=O)[O-])s3)cc2)nc(C)n1,"inconclusive: 22.4 µM [activator, single point]",–
COC(=O)c1ccccc1NCC(=O)c1ccc(OC)cc1,"inconclusive: 29.1 µM [activator, single point]",–
COc1cc(-c2nnc(SCC(=O)c3ccc(C)cc3)o2)cc(OC)c1OC,"inconclusive: 29.1 µM [activator, single point]",–
COc1ccc(CC(C#N)(CO)c2nc3ccccc3[nH]2)cc1 (configuration not stated),active: 20.6 µM,–
O=c1[nH]c2ccccc2n1CCCN1CCN(C(c2ccccc2)c2ccccc2)CC1,"inconclusive: 18.4 µM [activator, single point]",–
O=C(CCl)NCCCCCCCCCNC(=O)CCl,"inconclusive: 0.0046 µM [activator, full curve, poor fit]",–

Structure (SMILES),Potency,re-replication activation
Cn1c(C(O)c2ccc(Br)cc2)nc(Cl)c1Cl (configuration not stated),–,inactive: -0.402%
Cc1nnc(SCC(=O)NNC(=O)c2ccc(F)cc2)n1Cc1ccccc1,–,inactive: 1.62%
CN(Cc1ccc(Cl)cc1Cl)C(=O)c1cccc(S(=O)(=O)N2CCN(c3ccccc3)CC2)c1,–,inactive: 11.5%
Cn1c(CNC(=O)c2cccs2)nnc1SCC(=O)Nc1ccccc1,"inconclusive: 6.51 µM [activator, partial curve, poor fit]",–
O=C(CCc1ccc(S(=O)(=O)N2CCOCC2)cc1)N/N=C/c1ccc(O)c(O)c1O,–,inactive: 1.86%
O=C1c2ccccc2S(=O)(=O)c2cc(C(=O)N3CCN(c4c(Cl)cncc4Cl)CC3)ccc21,–,inactive: 20.4%
O=C1N/C(=C/c2cccn2-c2ccccc2)C(=O)N1Cc1ccccc1F,"inconclusive: 1.16 µM [activator, full curve, poor fit]",–
CN(C)S(=O)(=O)N1CCc2ccc(NC(=O)c3ccc(C(F)(F)F)cc3)cc2C1,–,inactive: -3.41%
O=C(CSc1nnc(NC(=O)C2CC2)s1)Nc1ccc(F)cc1F,–,inactive: 0.328%
CCC(C)Sc1ccc([C@H]2N[C@@](C)(C(=O)OC)[C@H]3C(=O)N(CC)C(=O)[C@@H]23)cc1OC (some centres not stated),–,inactive: 0.745%
O=C(O)c1n[nH]c2c1CC(C1CCCCC1)CC2 (configuration not stated),"inconclusive: 29.1 µM [activator, single point]",–
O=C(O)Cc1cn(Cc2cccc(Cl)c2)c2ccccc12,"inconclusive: 20.6 µM [activator, single point]",–
COc1ccccc1N1CCN(C(=O)c2cc(C)oc2C)CC1,–,inactive: 25.1%
Cc1ccc(S(=O)(=O)N2CCN(c3nc(CN4CCCC4)nc4sc(C)c(C)c34)CC2)cc1,–,inactive: -2.69%
CCCc1cc(=O)[nH]c(SCC(=O)c2ccc3c(c2)OCCO3)n1,"inconclusive: 0.13 µM [activator, full curve, poor fit]",–
CC(C)=C1SC(N2CCN(c3cccc(Cl)c3)CC2)=NC1=O,–,inactive: -0.361%
CC1CCCCN1C(=O)Cn1cnc2cc([N+](=O)[O-])ccc2c1=O (configuration not stated),"inconclusive: 29.1 µM [activator, single point]",–
CCOC(=O)c1ccccc1NC(=O)CSc1nc2ccccc2c(=O)n1CCCN1CCOCC1,"inconclusive: 16.4 µM [activator, single point]",–
Cn1c(=N)c(S(=O)(=O)c2ccccc2)cc2c(=O)n3ccccc3nc21,"inconclusive: 18.4 µM [activator, single point]",–
COc1ccc(N2C(=O)C3C(C2=O)C(C(=O)c2ccccc2)N2CCCC32)cc1 (configuration not stated),"inconclusive: 29.1 µM [activator, single point]",–
CCCC(=O)Nc1nn(CC)c2nc3ccc(C)cc3cc12,"inconclusive: 18.4 µM [activator, single point]",–

# 12 structures from above, ordered by molar mass, largest number first:
Structure (SMILES),Potency,re-replication activation
CCOC(=O)c1ccccc1NC(=O)CSc1nc2ccccc2c(=O)n1CCCN1CCOCC1,"inconclusive: 16.4 µM [activator, single point]",–
O=C1c2ccccc2S(=O)(=O)c2cc(C(=O)N3CCN(c4c(Cl)cncc4Cl)CC3)ccc21,–,inactive: 20.4%
O=C(CCc1ccc(S(=O)(=O)N2CCOCC2)cc1)N/N=C/c1ccc(O)c(O)c1O,–,inactive: 1.86%
Cn1c(CNC(=O)c2cccs2)nnc1SCC(=O)Nc1ccccc1,"inconclusive: 6.51 µM [activator, partial curve, poor fit]",–
Cc1ccc(-n2cc(CN(C)Cc3nccn3C)c(-c3cccc(C)c3)n2)cc1,"inconclusive: 29.1 µM [activator, single point]",–
O=C(CSc1nnc(NC(=O)C2CC2)s1)Nc1ccc(F)cc1F,–,inactive: 0.328%
Cn1c(=N)c(S(=O)(=O)c2ccccc2)cc2c(=O)n3ccccc3nc21,"inconclusive: 18.4 µM [activator, single point]",–
O=C1N/C(=C/c2cccn2-c2ccccc2)C(=O)N1Cc1ccccc1F,"inconclusive: 1.16 µM [activator, full curve, poor fit]",–
O=C(COc1cccc2ccccc12)Nc1cc(Cl)ccc1C(=O)O,–,inactive: 0.679%
Cn1c(C(O)c2ccc(Br)cc2)nc(Cl)c1Cl (configuration not stated),–,inactive: -0.402%
CC(=O)Nc1cccc(-c2csc(NCc3ccccc3)n2)c1,"inconclusive: 20.6 µM [activator, single point]",–
O=C(/C=C/c1cc(Br)ccc1O)c1ccco1,"inconclusive: 20.6 µM [activator, single point]",–
